Data as given in paper PMC4366279 (PLoS ONE, 2015).
These are yes or no findings as the source states them, for the method shown. In cells and extracts the contact can be indirect. Some binding calls cover weakened binding; strength is not graded here.

Key:
Assay in all cases: pull-down; His6-TbREL1 TNT mixture mixed with an equal volume of untagged KREPA2 TNT mixture, captured on magnetic His-tag isolation beads (Dynabeads); binding buffer 50 mM NaPO4 pH 8.0, 300 mM NaCl, 0.01% Tween 20; 20-30 min at 4°C; three washes; [35S]-methionine-labelled proteins on 10% SDS-PAGE, PhosphorImager; KREPA2-only control for background
[1] = target: T1, TbREL1 K379A (Trypanosoma brucei) (UniProt P86926)
T1 sequence (chain, [35S]-methionine labelled): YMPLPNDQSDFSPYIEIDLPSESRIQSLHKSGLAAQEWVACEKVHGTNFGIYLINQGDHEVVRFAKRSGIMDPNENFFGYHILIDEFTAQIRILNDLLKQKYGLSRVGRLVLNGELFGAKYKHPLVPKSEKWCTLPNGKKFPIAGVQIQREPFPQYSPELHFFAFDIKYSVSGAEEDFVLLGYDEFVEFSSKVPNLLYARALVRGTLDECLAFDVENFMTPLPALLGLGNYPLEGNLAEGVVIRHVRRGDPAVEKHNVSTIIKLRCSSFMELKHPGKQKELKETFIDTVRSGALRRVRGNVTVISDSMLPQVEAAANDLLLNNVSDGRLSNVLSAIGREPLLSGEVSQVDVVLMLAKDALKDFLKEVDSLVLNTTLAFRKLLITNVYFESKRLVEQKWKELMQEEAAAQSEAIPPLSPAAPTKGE

[2] = target: T2, TbREL1 K435A (Trypanosoma brucei) (UniProt P86926)
T2 sequence (chain, [35S]-methionine labelled): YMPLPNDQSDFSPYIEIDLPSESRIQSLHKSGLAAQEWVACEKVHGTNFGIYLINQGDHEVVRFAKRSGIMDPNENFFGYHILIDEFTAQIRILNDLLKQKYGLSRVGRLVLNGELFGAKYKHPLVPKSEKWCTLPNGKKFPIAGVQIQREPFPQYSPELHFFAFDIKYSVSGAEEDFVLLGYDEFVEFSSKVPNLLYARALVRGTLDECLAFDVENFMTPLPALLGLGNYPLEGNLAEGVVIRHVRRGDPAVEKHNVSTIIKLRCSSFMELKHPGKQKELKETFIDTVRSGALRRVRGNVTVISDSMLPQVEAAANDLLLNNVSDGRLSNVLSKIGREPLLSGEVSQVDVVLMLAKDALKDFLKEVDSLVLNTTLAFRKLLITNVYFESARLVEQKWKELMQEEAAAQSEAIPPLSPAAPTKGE

[3] = target: T3, TbREL1 K443A (Trypanosoma brucei) (UniProt P86926)
T3 sequence (chain, [35S]-methionine labelled): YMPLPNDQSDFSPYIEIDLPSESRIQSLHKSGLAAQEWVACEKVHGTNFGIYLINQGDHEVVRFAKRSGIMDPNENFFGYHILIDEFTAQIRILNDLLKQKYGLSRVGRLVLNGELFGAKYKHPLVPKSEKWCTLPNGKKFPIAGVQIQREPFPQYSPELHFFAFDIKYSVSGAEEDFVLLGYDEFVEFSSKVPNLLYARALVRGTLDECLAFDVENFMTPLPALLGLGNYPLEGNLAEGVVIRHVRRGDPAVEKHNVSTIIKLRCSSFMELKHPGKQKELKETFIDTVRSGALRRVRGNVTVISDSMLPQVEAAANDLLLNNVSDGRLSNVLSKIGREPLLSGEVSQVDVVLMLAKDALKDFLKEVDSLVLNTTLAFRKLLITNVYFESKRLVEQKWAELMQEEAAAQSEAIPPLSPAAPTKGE

[4] = target: T4, TbREL1 S214A (Trypanosoma brucei) (UniProt P86926)
T4 sequence (chain, [35S]-methionine labelled): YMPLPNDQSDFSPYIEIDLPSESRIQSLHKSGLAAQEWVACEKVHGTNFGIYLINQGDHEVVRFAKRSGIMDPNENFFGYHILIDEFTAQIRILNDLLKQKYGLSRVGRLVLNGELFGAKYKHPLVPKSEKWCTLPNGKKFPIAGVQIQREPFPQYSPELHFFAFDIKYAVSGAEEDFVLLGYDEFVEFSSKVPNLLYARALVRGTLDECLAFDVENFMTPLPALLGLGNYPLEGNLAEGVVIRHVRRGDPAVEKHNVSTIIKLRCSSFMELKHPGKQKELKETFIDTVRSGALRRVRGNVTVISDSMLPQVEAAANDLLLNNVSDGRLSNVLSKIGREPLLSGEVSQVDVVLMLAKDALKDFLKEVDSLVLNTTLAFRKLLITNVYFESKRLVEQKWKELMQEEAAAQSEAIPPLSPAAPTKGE

Measured: binding

B1: KREPA2 (natural protein)
chain: MYRRFFRSAAVKHLGTTSAQCLMRATKYPCGAMCRNASSCHPQTLGYQQRFQSTTDKKFHCSVCKKPFRLEMAAKLHLQQAHGGDGSVEAGPGPGVEASSVNVVSTPVPSPISPVERTFVDEEERRPRRMRPTPKPLHQPDRDIPAAAMEEMLGVWDKIGLNRLEGNFVHSTMVMKVFAAPPDVSEIPLYEHVAPEGENPFDSLDHMTTGTVDATYVGHDAFAEVDLVDPFVAAPDQTLNPFRAGKVRNPFTRISPTQREVVKPLQPPQPKEEPLKAPVTPFGQLPMFGQTREPSASFAAAAVSVQAAANPNEVSSPFAAAVSSSPFVGQVASPFAPAQDVAGSPFEASPCAASSPFVTAGGQETSPFAAPSTPASFGQGSLFPPMGTGAPGFTAITETEQRQQELEHGCPTCGKKFSTFEGAAMHSKSKHGIVLESKKVKDRLNRKGVPDLPAYVPSPVDLSSTSPFGTRSAIGASWAETELIPHAQCVSNITIVGRVLDVSQASENVSHVTVFVEGERSGEEETLTLCCFGEVSQKIRGTLKRNATIFASGTLRLHPVYEASNNKYYVSPVVHVSMPTGTLAVIT
modifications: [35S]-methionine labelled
notes: KREPA2 of T. brucei, the KREPA2 open reading frame, expressed untagged (63 kDa); source: in vitro translated (TNT reticulocyte lysate coupled transcription and translation system, Promega)
binds: all assays above
